Key:
[1] = general procedure: Fmoc solid-phase peptide synthesis; 2-chlorotrityl chloride resin; HATU/DIPEA; PyBOP/HOBt/DIPEA for cyclization; conditions: whole synthesis
[2] = general procedure: Fmoc solid-phase peptide synthesis; 2-chlorotrityl chloride resin (loading capacity: 0.8 mmol/g); HATU/DIPEA; PyBOP/HOBt/DIPEA for cyclization

NOTA-TP-c(RGDfK) [5]
isolated yield [1]: 2–3%

NOTA-c(RGDfK)
isolated yield [1]: 28% yield | final HPLC purity ([2]; whole synthesis, analytical HPLC (Agilent 1200, Zorbax Eclipse XDB C18, diode array UV-Vis)): 99%

^natCu-NOTA-c(RGDfK)
step yield ([2]; late stage modification step): 90% | final purity (method not given) ([2]; late stage modification step, analytical HPLC (Agilent 1200, Zorbax Eclipse XDB C18, diode array UV-Vis)): 99%

Reference: paper PMC12384813 (2025)
